Results as given in PubChem BioAssay AID1508600 (Functional Genomics Laboratory (NCATS/FGL), 2020).
Hit rate of the full screen: of about 53,000 sequences, about 3,700 (7%) were called active.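 Rule for the calls: active = gene knockdowns whose robust z-score for IL-1 alpha signal is at least 2 or at most -2, so actives lie on both sides; inactive = the rest.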 The list shows a part of the results.

Assay: Components of the Cytosolic LPS Sensing Pathway: Gene Identification via Genome-wide siRNA Screen;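 note: robust z of the log signal after scaling to non-targeting control siRNA wells of the plate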
Settings: RAW264.7 macrophages, IL-1a HTRF, actives lie on both sides, screened at 100 nM (by protocol), cells primed 5 h with Pam3CSK4 first
How it was run: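 Using IL-1a HTRF as read-out, the screen measured release from RAW264.7 cells after 48h siRNA knockdown (100 nM), 5 h Pam3CSK4 priming and 24 h cytosolic LipidA. Values were expressed relative to negative-control wells as robust z-scores.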

Sequence	z-score
CCUUUAACCCUCAACUCAATT against Selenos	inactive: -0.251
CCUGAAAGUUCAAAUGUCATT against Ankrd12	inactive: 0.467
GGAGAACUCUUUCAGAUUCTT against Stk36	inactive: 0.957
CCCUGACCGUUUGCUAUAUTT against LOC574530	inactive: 0.6
CCGCUACCUCUCGCUAUAUTT against Gpr12	inactive: -0.363
GUAAUCUGUCUUUCGUUGATT against Olfr957	inactive: 0.68
GGAAAAGCAAGAGGAAAGATT against Ifnb1	active: 2.39
GGAAAAGUUCUUAAAGCUGTT against Tmem67	inactive: -0.723
GGAGAAAGGAUUGUGUUUGTT against Clec10a	active: 2.2
GCAGAUCGUGCGGAUCUUGTT against Bcdin3d	active: 2.1
CCCGUGCUUCAAAUAGAGATT against Cavin3	inactive: 0.789
CCAAAUUACUAGGUUAAAGTT against Rasgrp3	inactive: -0.15
GGAAAAUCCCUGUGUCCGATT against Spdye4a	inactive: -1.34
GGAAUUUUUUCAUACCACUTT against Wipf1	inactive: 0.738
GCGUAAAAUUUGGUGCAACTT against Cfap20dc	inactive: 1.15
GGUGGACAAUCUGGUCAACTT against Mgat5	inactive: 1.41
GGAACAUUACAAAAGCUCUTT against Slfn1	inactive: -0.872
CCGACAUUCAACAAGAUUUTT against Mta1	inactive: -0.092
GCUCGGAUUUCCUACUCACTT against Agps	inactive: -0.493
GGUUGAUUUAAACAUUGGATT against Pcdhgb2	inactive: 1.83
GGUGCUGCUGAGAUUUUUCTT against Pxt1	inactive: 0.555
CGACCAGCCAUGGUACAAATT against Ptprd	inactive: -0.83
CCAUUGAGGUAAUGUUUGATT against Rmnd1	inactive: 0.978

Sequence	z-score
GGAAAUCCUUACUAUGCAUTT against Enam	inactive: 0.406
GGAAAAGGGCAAGCACAUGTT against Naa10	inactive: 0.833
GGAGCUGAUGGUUGAAUGUTT against Ehbp1	inactive: 0.177
CGUGUUAGGUCUUCCUCCUTT against Ptges3l	inactive: -1.49
GCUGUUAAAACUCUCGUUATT against Pdk3	active: 2.02
GGACAAUGUAGUUUAUCACTT against Cdnf	inactive: -1.72
CCAUGUAAGUUAUAAGUGUTT against Nxph1	inactive: -0.661
CCUACCUGAUCGUUCCUUATT against Arsb	inactive: 0.37
GCCUCAAAUAUCGGGCCAUTT against Rapsn	inactive: 1.64
GGAAGAUUUCUUCACCGACTT against Ptf1a	inactive: 1.4
GCAUAUUAGUGCUUUUCCCTT against Olfr78	inactive: 0.0338
GGGAAUCGGACCAACUUACTT against Adssl1	active: 3.64
GGACUUCCCGAACUACAUATT against Zfp52	inactive: 0.0339
GGAUCUGAAGAUGAUGAACTT against Ces2e	inactive: 0.0623
GGCAGAGUGCUGGAUUUGUTT against 4933409G03Rik	inactive: 0.955
GGUACUUUUACUCCCGAAGTT against Lgals3bp	active: -2.05
CCCAAGGUACAUUUUUCAATT against Mab21l2	inactive: 0.933
GGAAGAGGAAUAUUACCAGTT against Marveld3	active: -2.16
GCGCGCAUUAACUACACGUTT against Zfp82	inactive: 1.88
GGUGCUCAAUAAAUGGAAUTT against Dcakd	inactive: 0.314
CGUAGGACAAAUUAUACCATT against Gria3	inactive: 0.502
CGGAACUACCGCUUCUUUUTT against Zdhhc18	inactive: 0.0121
GGAGCCAGGAAAAUUUAUGTT against Carm1	inactive: -0.624

An excerpt of these results, as comma-separated lines.
Sequence,z-score
GGAAUUUUUUCAUACCACUTT against Wipf1,inactive: 0.738
GGUGGACAAUCUGGUCAACTT against Mgat5,inactive: 1.41
CGACCAGCCAUGGUACAAATT against Ptprd,inactive: -0.83
CGUGUUAGGUCUUCCUCCUTT against Ptges3l,inactive: -1.49
GGACAAUGUAGUUUAUCACTT against Cdnf,inactive: -1.72

Additional records follow.

Sequence	z-score
CGGAAGAACUACAAGUCGATT against Sipa1l3	active: 2.09
GCUAUAGAUUCCUCUGCCATT against Olfr1098	inactive: -0.525
CCGCUUGGGAUUAGCUAUGTT against Olfr543	inactive: -0.11
GGGCUAUAUGGAUUUAAUGTT against Txnl1	inactive: 1.97
GCAAUUUUAGUUGGUGGAATT against Ddx24	inactive: -0.112
CCCAUGACUUUAGAAUAGGTT against Kcnf1	inactive: -0.658
CCUCGUUAUCCUCAUGGGATT against Alppl2	inactive: 0.649
CCUUGAAUUUAACAGGGAUTT against Shtn1	inactive: -0.00497
GGAGGCUGUGAAAGAAUCATT against Gzma	inactive: -0.848
GGGUAUUUUUUUGUGGCUUTT against Nsg2	inactive: 0.489
CCCUUUACCCUACGCGUAUTT against Ifitm2	inactive: 0.212
GGAAAUUACAAGCUAGCAUTT against Dnajc7	inactive: 1.29
GCUGCUAAUGCUUGAUUAUTT against Il7r	inactive: 1.09
CGUACAGAGACAUCUUGAUTT against Idnk	inactive: 1.06
GCCGUGAAGAAAAUUUUGATT against Olfr270	inactive: 0.17
GGACGCAAUGGUGUCUUCUTT against Adamts16	inactive: -0.789
GGACCAUCUCUUUGAUUGGTT against Olfr424	inactive: -1.12
GCUCAUCGCUGAUUCGACATT against Zfp667	inactive: -0.0832
GGCUCUGGCAUUAAUGAACTT against Vnn1	inactive: -0.912
CCGCCUAAAUGACUUGACATT against Fbxw14	inactive: -1.1
GGCACAUUGUGGUGUCUUGTT against Pycr1	inactive: -3e-05
CGGAAUUUUAGGGAUAGGATT against Rcn1	inactive: -0.155
